# Test results taken from the supplement of paper PMC12823440, “Inhibitors supercharge kinase turnover through native proteolytic circuits” (Nature, 2025).
# The other results are listed elsewhere or left out. The calls rarely recur for the same compound in another form.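 Kinases, fused to nanoluciferase, were expressed in K562 cells; luminescence was measured every 4 h from 2 to 18 h as percent of control (DMSO = 100%, positive control = 0%). A time point is decreased if signal falls significantly (2 sigma). Hits were called by the authors by a rule that is not shown; the count of time points alone does not decide it.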
# Molecular target: EGFR_G719S_T790M (UniProt P00533)
# Test: number of time points (of 5) at which kinase-Nluc abundance scored as decreased, DMSO-normalised (count); higher = more persistent destabilization
# Details: K562; 2-18 h
row,SMILES,number of time points
1,O=C1NC(=O)C(c2cn(-c3ccccc3)nc2-c2ccc(F)cc2)N1 (stereo unspecified) (10 µM),0
2,O=[N+]([O-])c1ccc(Sc2cccc[n+]2[O-])c2nonc12 (2.5 µM),0
3,COc1nc(-c2ccnc(NC(=O)C3CC3)c2)sc1C(N)=O [GSK-3β inhibitor 2] (10 µM),0
4,CCN1/C(=C/C(C)=O)Sc2ccc(OC)cc21 (10 µM),1
5,Nc1cccc(S(=O)(=O)N2CCCN(S(=O)(=O)c3ccc4c(c3)OCCO4)CC2)c1 (10 µM),0
6,Nc1ncc(-c2ccc(C(=O)N3CCNCC3)cc2)nc1-c1ccc(C(F)(F)F)cc1 (10 µM),0
7,CC[C@H](Nc1ncnc2[nH]cnc12)c1oc2ccccc2c(=O)c1-c1cccc(F)c1 [Tenalisib] (10 µM),0
8,CC(C)(O)[C@@H]1CC[C@](C)([C@H]2[C@@H](O)C[C@@]3(C)[C@@H]4C[C@H](O[C@@H]5O[C@H](CO)[C@@H](O)[C@H](O)[C@H]5O)[C@H]5C(C)(C)[C@@H](O[C@@H]6OC[C@@H](O)[C@H](O)[C@H]6O[C@@H]6O[C@H](CO)[C@@H](O)[C@H](O)[C@H]6O)CC[C@@]56C[C@@]46CC[C@]23C)O1 [Astragaloside VI] (10 µM),0
9,CC(=O)Nc1nc2ccc(-c3cnc(C)c(NC(=O)OC4CCCCC4)c3)cc2s1 (10 µM),0
10,COc1ccccc1/C=C1\C(=O)Nc2ccccc21 (10 µM),0
11,CC1(N)CCN(c2cnc3c(-c4cccc(Cl)c4Cl)[nH]nc3n2)CC1 (2.5 µM),0
